PubChem BioAssay AID1259405 – NCATS | 2018
Aim: 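Mouse-designed siRNAs used to find CHO productivity engineering targets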 (primary screen). Cells: Chinese hamster CHO-K1 ovary cells with stable secreted eGFP expression. Reagents: single siRNA against mouse genes, 0.8 pmol siRNA per well (2 µl of 400 nM stock). Timing: 3 days. Read-out: 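Per-well intracellular GFP measured by laser scanning cytometry, plus viability from ATP luminescence, each relative to plate median of non-targeting control wells, in %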. Direction: GFP, % of control: higher = more GFP per well, higher productivity; viability (ATP), % of control: higher = more viable cells (more ATP). Rule for the call: 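a knock-down is called active if GFP reaches 120% or more of non-targeting control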.
Here is a random part of about 50,000 deposited reagents. Of all reagents, about 4,000 (8%) got an active call. 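Mouse siRNA library applied to hamster cells; one well for each siRNA.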 A number with no mark means an inactive call. Reagents against one gene are numbered here. Reagent sequences are not shown.

target,reagent,"GFP, % of control","viability (ATP), % of control"
Satb1 (special AT-rich sequence binding protein 1),1,85.4,62
Satb1 (special AT-rich sequence binding protein 1),2,92.7,71
Satb1 (special AT-rich sequence binding protein 1),3,70.9,73.3
Vwa3b (von Willebrand factor A domain containing 3B),1,165 (active),103
Vwa3b (von Willebrand factor A domain containing 3B),2,81.6,84.4
Vwa3b (von Willebrand factor A domain containing 3B),3,62.3,34.9
Vwa3b (von Willebrand factor A domain containing 3B),4,89.5,114
Vwa3b (von Willebrand factor A domain containing 3B),5,82.3,69
Vwa3b (von Willebrand factor A domain containing 3B),6,66.9,84.4
Ptgr2 (prostaglandin reductase 2),1,89.6,81.8
Ptgr2 (prostaglandin reductase 2),2,87.6,74.3
Ptgr2 (prostaglandin reductase 2),3,82.4,78.5
Usp43 (ubiquitin specific peptidase 43),1,88.1,111
Usp43 (ubiquitin specific peptidase 43),2,82.3,63.9
Usp43 (ubiquitin specific peptidase 43),3,47.5,45.6
"Me1 (malic enzyme 1, NADP(+)-dependent, cytosolic)",1,81.5,75.2
"Me1 (malic enzyme 1, NADP(+)-dependent, cytosolic)",2,89.3,86.4
"Me1 (malic enzyme 1, NADP(+)-dependent, cytosolic)",3,70.2,70.6
D630044L22Rik (RIKEN cDNA gene D630044L22 gene),1,103,62.2
D630044L22Rik (RIKEN cDNA gene D630044L22 gene),2,114,71.2
D630044L22Rik (RIKEN cDNA gene D630044L22 gene),3,65.1,50.2
Mrps7 (mitchondrial ribosomal protein S7),1,70,81.8
Mrps7 (mitchondrial ribosomal protein S7),2,63.5,60.1
Mrps7 (mitchondrial ribosomal protein S7),3,50.9,39.9
Abraxas1 (BRCA1 A complex subunit),1,82.1,55.9
Abraxas1 (BRCA1 A complex subunit),2,57.1,38
Abraxas1 (BRCA1 A complex subunit),3,92.3,114
Otulin (OTU deubiquitinase with linear linkage specificity),1,50.5,76
Otulin (OTU deubiquitinase with linear linkage specificity),2,77.6,90.4
Otulin (OTU deubiquitinase with linear linkage specificity),3,70.5,108
Htr2c (5-hydroxytryptamine (serotonin) receptor 2C),1,71.5,63.1
Htr2c (5-hydroxytryptamine (serotonin) receptor 2C),2,81.3,73.5
Htr2c (5-hydroxytryptamine (serotonin) receptor 2C),3,71.4,65.8
Fign (fidgetin),1,155 (active),81
Fign (fidgetin),2,85.3,104
Fign (fidgetin),3,103,88.7

Next part; the last 5 above are carried over.
target,reagent,"GFP, % of control","viability (ATP), % of control"
Htr2c (5-hydroxytryptamine (serotonin) receptor 2C),2,81.3,73.5
Htr2c (5-hydroxytryptamine (serotonin) receptor 2C),3,71.4,65.8
Fign (fidgetin),1,155 (active),81
Fign (fidgetin),2,85.3,104
Fign (fidgetin),3,103,88.7
Stkld1 (serine/threonine kinase-like domain containing 1),1,90.3,68.4
Stkld1 (serine/threonine kinase-like domain containing 1),2,109,71.5
Stkld1 (serine/threonine kinase-like domain containing 1),3,99.9,110
Btbd16 (BTB domain containing 16),1,37.6,71.8
Btbd16 (BTB domain containing 16),2,119,95.9
Btbd16 (BTB domain containing 16),3,67,87.3
Cbr3 (carbonyl reductase 3),1,79.5,92.3
Cbr3 (carbonyl reductase 3),2,86.9,85.7
Cbr3 (carbonyl reductase 3),3,58.9,79.1
Bin3 (bridging integrator 3),1,79.1,104
Bin3 (bridging integrator 3),2,90.1,67.2
Sars1 (seryl-tRNA synthetase 1),1,93,104
Sars1 (seryl-tRNA synthetase 1),2,79.2,77.4
Or10d4b (olfactory receptor family 10 subfamily D member 4B),1,63.5,61.2
Or10d4b (olfactory receptor family 10 subfamily D member 4B),2,55.7,86.9
Or10d4b (olfactory receptor family 10 subfamily D member 4B),3,53.8,60.9
"Gpd2 (glycerol phosphate dehydrogenase 2, mitochondrial)",1,80.6,83.7
"Gpd2 (glycerol phosphate dehydrogenase 2, mitochondrial)",2,59.4,67.6
"Gpd2 (glycerol phosphate dehydrogenase 2, mitochondrial)",3,91.5,78.7
Cops7a (COP9 signalosome subunit 7A),1,74.1,102
Cops7a (COP9 signalosome subunit 7A),2,44.4,58.8
Cops7a (COP9 signalosome subunit 7A),3,107,117
Dsg2 (desmoglein 2),1,80,87.3
Dsg2 (desmoglein 2),2,108,86
Cd47,1,69,78.1
Cd47,2,61.6,69.2
Cd47,3,81.7,65.4
Dennd2d (DENN domain containing 2D),1,79.8,80.6
Dennd2d (DENN domain containing 2D),2,73.7,67.4
Dennd2d (DENN domain containing 2D),3,99.1,111
Xrcc2 (X-ray repair complementing 2),1,117,97.3
Xrcc2 (X-ray repair complementing 2),2,67.2,79
Ctsb (cathepsin B),1,75.5,81.1
Ctsb (cathepsin B),2,77.1,43.8
Ctsb (cathepsin B),3,95,61.9
Unc5b (unc-5 netrin receptor B),1,140 (active),76.2
Unc5b (unc-5 netrin receptor B),2,115,81.8
Unc5b (unc-5 netrin receptor B),3,87.7,80.9
Mageb1 (MAGE family member B1),1,66,77.3
Mageb1 (MAGE family member B1),2,57.4,44.1
Mageb1 (MAGE family member B1),3,86.8,61.4
Ifrd2 (interferon-related developmental regulator 2),1,99.6,108
Ifrd2 (interferon-related developmental regulator 2),2,70.4,58.8
Ifrd2 (interferon-related developmental regulator 2),3,81.8,60
Rnf103 (ring finger protein 103),1,70.3,76.7
Rnf103 (ring finger protein 103),2,73.6,66.3
Rnf103 (ring finger protein 103),3,82,87.6
"Fam13a (family with sequence similarity 13, member A)",1,88.4,90.4
"Fam13a (family with sequence similarity 13, member A)",2,123 (active),94.6
"Fam13a (family with sequence similarity 13, member A)",3,167 (active),79.9
